Experiment: Comparative color assay for crosslinking with glycine
Details: pH 7 buffer, equimolar glycine, 80° C., after 4 hours

Row | Structure (SMILES) | crosslinking activity (color of solution after treatment with glycine) | crosslinking activity (color of solution after treatment with glycine) (listed as D1)
1 | COC(=O)C1=CO[C@@H]2OC[C@@]3(O)[C@@H]2[C@@H]1C[C@H]3Cl [compound 55] | still clear | no crosslinking activity
2 | COC(=O)C1=CO[C@@H](O)[C@@H]2C(CO)=CC[C@H]12 [genipin] | turned dark blue | –
